Reference: PubChem BioAssay AID504834 (National Center for Advancing Translational Sciences (NCATS), 2011)
The whole screen tested about 320,000 compounds, of which about 22,000 (6.9%) were called active. Inconclusive means that the source gave no clear call. Such entries were picked first, then a sample of the others. Calls come from the whole dose curve; as a rule, active = well fitted inhibition curve with a large enough effect; inconclusive = small, poorly fitted or top-dose-only effect, or another doubt; inactive = no such curve, though single readings can be large or run the other way. Potencies beside an inconclusive call are fits to weak or partial responses and may not hold up.

Test: Primary qHTS for delayed death inhibitors of the malarial parasite plastid, 96 hour incubation
Settings: P. falciparum luciferase reporter growth; series mostly up to 28.7 µM
Method in brief: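 Luminescence readout: decreased luciferase signal marks inhibited growth of reporter-expressing P. falciparum in infected red cells (2% hematocrit, 0.05% parasitemia final), exposed to compound two generations (96 h, 37 C, 5% CO2).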
Potency is the fitted concentration of half-maximal effect.

Row | Structure (SMILES) | Potency
1 | Cc1c(/C=C/C(=O)c2ccccc2O)cnn1C | inactive
2 | O=C(N1CCOCC1)N1CCN(c2ccccc2F)CC1 | inconclusive: 10.4 µM [inhibitor, partial curve, poor fit]
3 | Cc1oc2ccc(OS(C)(=O)=O)cc2c1C(=O)OC(C)C | inconclusive: 11.7 µM [inhibitor, single point]
4 | Cc1nn(C(C)(C)C)c(OC(=O)CC(C)C)c1S(=O)(=O)c1ccccc1 | active: 9.28 µM
5 | CCOC(=O)c1sc2nc(C)nc(SCC(=O)NC3CCS(=O)(=O)C3)c2c1C (stereo not drawn) | inconclusive: 18.5 µM [inhibitor, single point]
6 | CCCNC(=O)c1ccc(N2CCC3(CC2)CC(c2ccccc2)=NO3)c(NC(=O)c2cccc(OC)c2)c1 | active: 2.08 µM
7 | CC(OC(=O)c1cccc(S(=O)(=O)N2CCCC2)c1)C(=O)NC1CCCCC1C (stereo not drawn) | inactive
8 | Cc1nc(N)sc1C(=O)N/N=C/c1cccnc1 | inactive
9 | CNc1ccc(Br)cc(C(=O)/C=C/c2cccc(OC)c2)c1=O | inconclusive: 10.4 µM [inhibitor, single point]
10 | CC(C)C[C@H](NC(=O)c1[nH]cnc1C(=O)Nc1ccc(Cl)cc1)C(=O)OC(C)(C)C | active: 13.1 µM
11 | COc1ccc(OC)c(-n2c(C)cc(C=O)c2C)c1 | inconclusive: 5.22 µM [inhibitor, partial curve, poor fit]
12 | Cc1cc(Cn2nc(-c3ccccc3)cc2C(=O)NCC2CC2)on1 | inconclusive: 18.5 µM [inhibitor, single point]
13 | CN(C)C(=O)N1CCCC(C(=O)NCCc2ccccc2)C1 (stereo not drawn) | inactive
14 | Nc1nc(SCc2ccc(Cl)cc2)ns1 | inconclusive: 11.7 µM [inhibitor, single point]
15 | CC1C(C(=O)Nc2ccccc2)CCCC1(C)C(=O)O (stereo not drawn) | inactive
16 | CC1Cc2ccccc2N1CC(=O)Nc1ccc(S(=O)(=O)N(C)C)cc1 (stereo not drawn) | inconclusive: 10.4 µM [inhibitor, single point]
17 | COc1cc(C(=S)N2CCOCC2)cc(OC)c1OC(=O)c1ccc([N+](=O)[O-])cc1[N+](=O)[O-] | inconclusive: 18.5 µM [inhibitor, single point]
18 | CCCCN(C(=O)C(C)Oc1ccc(Br)cc1)c1c(N)n(CC(C)C)c(=O)[nH]c1=O (stereo not drawn) | inconclusive: 18.5 µM [inhibitor, single point]
19 | CCOC(=O)Cc1cc(=O)c2cc(C)ccc2[nH]1 | inconclusive: 5.22 µM [inhibitor, partial curve]
20 | O=C1C(c2ccc(F)cc2)N(CC2COc3ccccc3O2)C(=O)CN1C1CCCCC1 (stereo not drawn) | inconclusive: 10.4 µM [inhibitor, single point]
21 | O=S(=O)(c1ccccc1)N1CCN(CCO)CC1 | inconclusive: 18.5 µM [inhibitor, single point]
22 | CC1CC(=S)Nc2ccccc2N1C(=O)Nc1ccccc1 (stereo not drawn) | inconclusive: 0.262 µM [inhibitor, full curve, poor fit]

3 compounds from above, sorted by molar mass, largest number first:
Row | Structure (SMILES) | Potency
20 | O=C1C(c2ccc(F)cc2)N(CC2COc3ccccc3O2)C(=O)CN1C1CCCCC1 (stereo not drawn) | inconclusive: 10.4 µM [inhibitor, single point]
9 | CNc1ccc(Br)cc(C(=O)/C=C/c2cccc(OC)c2)c1=O | inconclusive: 10.4 µM [inhibitor, single point]
2 | O=C(N1CCOCC1)N1CCN(c2ccccc2F)CC1 | inconclusive: 10.4 µM [inhibitor, partial curve, poor fit]

Remaining list, next part.

Row | Structure (SMILES) | Potency
23 | CCOC(=O)c1nn(-c2ccccc2)c(=O)cc1SC(C)CC (stereo not drawn) | inconclusive: 13.1 µM [inhibitor, partial curve, poor fit]
24 | Cc1c(NS(=O)(=O)c2cc(C(=O)NC(C)c3ccccc3)ccc2Cl)c(=O)n(-c2ccccc2)n1C (stereo not drawn) | inconclusive: 18.5 µM [inhibitor, single point]
25 | OCCNCc1cc(Br)ccc1OCc1ccc(Cl)cc1 | inconclusive: 9.28 µM [inhibitor, partial curve, poor fit]
26 | O=C(Nc1ccc(F)cc1)Nc1ccccc1C(=O)NCCN1CCNC1=O | inactive
27 | COc1ccc(Cl)cc1NC(=S)N1CCN(c2ccccn2)CC1 | inconclusive: 0.522 µM [inhibitor, full curve, poor fit]
28 | CCOC(=O)c1[nH]c(C=O)c(C(=O)OCC)c1C | inconclusive: 2.62 µM [inhibitor, partial curve, poor fit]
29 | O=C(c1ccc(Cl)cc1)C1CCN(C(=O)N2CCOCC2)CC1 | inconclusive: 0.0041 µM [inhibitor, full curve, poor fit]
30 | COc1ccc(NC2=CC(c3ccc(OC)c(OC)c3)N(c3ccc(OC)cc3)C2=O)cc1 (stereo not drawn) | inconclusive: 10.4 µM [inhibitor, partial curve, poor fit]
31 | CCOC(=O)c1c(C)[nH]c(C)c1C(=O)COC(=O)/C=C/c1ccc(OC(F)F)cc1 | inconclusive: 11.7 µM [inhibitor, partial curve, poor fit]
32 | CC1CCCCN1Cc1c[nH]c2ccccc12 (stereo not drawn) | inconclusive: 0.522 µM [inhibitor, partial curve, poor fit]
33 | CC(NS(=O)(=O)c1ccc2c(c1)CC(C)N2C(=O)C1CC1)c1ccccc1 (stereo not drawn) | inactive
34 | CCCCn1c(N)c(N(CCC(C)C)C(=O)CC2OC(=O)c3ccccc32)c(=O)[nH]c1=O (stereo not drawn) | active: 4.65 µM
35 | COc1ccc(C(C)NCCC(c2ccc(OC(C)C)cc2)c2ccccc2OC)cc1 (stereo not drawn) | inconclusive: 18.5 µM [inhibitor, single point]
36 | COc1cccc(CC(=O)OCC(=O)NC(=O)c2ccc(OC(F)F)cc2)c1 | inconclusive: 18.5 µM [inhibitor, single point]
37 | COC(=O)C1=C(c2ccc(F)cc2OCc2ccccc2)C[C@@H]2CC[C@H]1N2C(=O)NCCCOC(C)C | inconclusive: 2.33 µM [inhibitor, full curve]
38 | COc1ccccc1-c1noc(-c2cc(OC)c(OC)c(OC)c2)n1 | inconclusive: 10.4 µM [inhibitor, single point]
39 | CC1(C)CC2CC(C)(CN2S(=O)(=O)c2cccc(C(N)=O)c2)C1 (stereo not drawn) | inconclusive: 10.4 µM [inhibitor, single point]
40 | O=C(COC(=O)c1ccc(O)cc1)NCC1CCCO1 (stereo not drawn) | inactive
41 | COc1ccc(-c2csc(NC(=O)CSCc3c(C)noc3C)n2)c(OC)c1 | active: 10.4 µM
42 | COc1ccc(OC)c(CN2C(=O)c3ccccc3C2C(=O)NCC2CCCO2)c1 (stereo not drawn) | inconclusive: 11.7 µM [inhibitor, single point]
43 | COc1cc(N2CCOCC2)ccc1/C=C1\C(=O)NC(=O)N(C2CCCCC2)C1=O | inactive
